The list does not hold the whole screen: it gathers tests that were run many times, whatever their T/C, doses with no T/C, and many T/C values between a quarter and a half above the control. Further doses and runs are listed elsewhere. T/C: endpoint of the treated group in % of that of the vehicle group. Schedule codes are those of the source, taken here to give the interval after Q, in days (D) or hours (H), and the number of doses after X. Some doses were run more than once; the results are listed from low to high. Some T/C values are followed by the survivors on the day toxicity was checked, most often the fifth; without a count, all were alive then. Some entries give survivors of the animals treated and no T/C: the source holds a T/C of zero for them, seemingly a mark for toxic or unscored doses. Some survivor counts are full or nearly so, which does not show that the dose was tolerated: survival well below the control is almost never listed, so the zero probably covers shortened survival too. Survivors were counted at the toxicity check, usually on the fifth day, unless a day is given; later deaths do not show. Where survival is the endpoint, the PubChem record calls one and a half times the control and up active, and a quarter to a half above the control has no call in these data; cut-offs in other NCI protocols can differ.
Test system: BDF1 mice, s.c. Lewis lung carcinoma, T/C %
Test: NCI In Vivo Anticancer Drug Screen. Data for tumor model Lewis Lung Carcinoma (subcutaneous) in B6D2F1 (BDF1) mice
Summary of the method: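 Transplanted tumors grown in mice; compound vs vehicle dosing; endpoint survival or tumor size; ratio T/C.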

[1] = T/C endpoint: median survival time, dose: 64.0 mg/kg/injection, schedule: Q01DX001 (ip), vehicle: saline + alcohol, higher T/C = longer survival
[2] = T/C endpoint: median survival time, dose: 128.0 mg/kg/injection, schedule: Q01DX001 (ip), vehicle: saline + alcohol, higher T/C = longer survival
[3] = T/C endpoint: median survival time, dose: 256.0 mg/kg/injection, schedule: Q01DX001 (ip), vehicle: saline + alcohol, higher T/C = longer survival

## CC1CCC(NC(=O)N(CCCl)N=O)CC1 (stereo not drawn)
T/C endpoint: median survival time, dose: 27.0 mg/kg/injection, schedule: Q07DX002 (ip), vehicle: saline with Tween-80, evaluated on day 101, higher T/C = longer survival
  T/C: 163 % of control
T/C endpoint: median survival time, dose: 27.0 mg/kg/injection, schedule: Q07DX002 (ip), vehicle: saline with Tween-80, evaluated on day 119, higher T/C = longer survival
  T/C: 198 % of control
T/C endpoint: median survival time, dose: 30.0 mg/kg/injection, schedule: Q01DX001 (ip), vehicle: Klucel (hydroxypropylcellulose) (HPC), higher T/C = longer survival
  T/C: 131 % of control
T/C endpoint: median survival time, dose: 30.0 mg/kg/injection, schedule: Q01DX001 (ip), vehicle: other, higher T/C = longer survival
  T/C: 148 % of control
T/C endpoint: median survival time, dose: 32.0 mg/kg/injection, schedule: Q01DX009 (ip), vehicle: saline with Tween-80, higher T/C = longer survival
  survivor count: 10 of 10
T/C endpoint: median survival time, dose: 33.0 mg/kg/injection, schedule: Q07DX002 (ip), vehicle: saline with Tween-80, evaluated on day 80, higher T/C = longer survival
  T/C: 262 % of control
T/C endpoint: median survival time, dose: 33.0 mg/kg/injection, schedule: Q07DX002 (ip), vehicle: saline with Tween-80, evaluated on day 84, higher T/C = longer survival
  T/C: 381 % of control
T/C endpoint: median survival time, dose: 33.0 mg/kg/injection, schedule: Q07DX002 (ip), vehicle: saline with Tween-80, evaluated on day 101, higher T/C = longer survival
  T/C: 413 % of control
T/C endpoint: median survival time, dose: 33.0 mg/kg/injection, schedule: Q07DX002 (ip), vehicle: saline with Tween-80, evaluated on day 119, higher T/C = longer survival
  T/C: 160 % of control
T/C endpoint: median survival time, dose: 36.0 mg/kg/injection, schedule: Q01DX001 (ip), vehicle: Klucel (hydroxypropylcellulose) (HPC), higher T/C = longer survival
  T/C: 130 % of control
T/C endpoint: median survival time, dose: 36.0 mg/kg/injection, schedule: Q01DX001 (ip), vehicle: gum acacia, evaluated on day 15, higher T/C = longer survival
  T/C: 257 % of control
T/C endpoint: median survival time, dose: 36.0 mg/kg/injection, schedule: Q01DX001 (ip), vehicle: gum acacia, evaluated on day 43, higher T/C = longer survival
  T/C: 179 % of control
T/C endpoint: median survival time, dose: 36.0 mg/kg/injection, schedule: Q01DX001 (ip), vehicle: gum acacia, evaluated on day 46, higher T/C = longer survival
  T/C: 139 % of control
T/C endpoint: median survival time, dose: 36.0 mg/kg/injection, schedule: Q01DX001 (ip), vehicle: gum acacia, evaluated on day 77, higher T/C = longer survival
  T/C: 353 % of control
T/C endpoint: median survival time, dose: 36.0 mg/kg/injection, schedule: Q01DX001 (ip), vehicle: gum acacia, evaluated on day 136, higher T/C = longer survival
  T/C: 138 % of control
T/C endpoint: median survival time, dose: 36.0 mg/kg/injection, schedule: Q01DX001 (ip), vehicle: saline with Tween-80, evaluated on day 12, higher T/C = longer survival
  T/C: 152 and 157 % of control
T/C endpoint: median survival time, dose: 36.0 mg/kg/injection, schedule: Q01DX001 (ip), vehicle: saline with Tween-80, evaluated on day 52, higher T/C = longer survival
  T/C: 176 % of control
T/C endpoint: median survival time, dose: 36.0 mg/kg/injection, schedule: Q01DX001 (ip), vehicle: saline with Tween-80, evaluated on day 54, higher T/C = longer survival
  T/C: 165 % of control
T/C endpoint: median survival time, dose: 36.0 mg/kg/injection, schedule: Q01DX001 (ip), vehicle: saline with Tween-80, evaluated on day 90, higher T/C = longer survival
  T/C: 189 % of control
T/C endpoint: median survival time, dose: 36.0 mg/kg/injection, schedule: Q01DX001 (ip), vehicle: saline with Tween-80, evaluated on day 92, higher T/C = longer survival
  T/C: 95 % of control
T/C endpoint: median survival time, dose: 36.0 mg/kg/injection, schedule: Q06DX002 (ip), vehicle: gum acacia, higher T/C = longer survival
  survivor count: 10 of 10 on day 15
T/C endpoint: median survival time, dose: 36.0 mg/kg/injection, schedule: Q08DX002 (ip), vehicle: gum acacia, higher T/C = longer survival
  T/C: 145 % of control
T/C endpoint: median survival time, dose: 36.0 mg/kg/injection, schedule: Q11DX002 (ip), vehicle: saline with Tween-80, higher T/C = longer survival
  T/C: 144 % of control
T/C endpoint: median survival time, dose: 36.0 mg/kg/injection, schedule: Q11DX002 (oral), vehicle: saline with Tween-80, higher T/C = longer survival
  T/C: 135 % of control
T/C endpoint: median survival time, dose: 54.0 mg/kg/injection, schedule: Q01DX001 (ip), vehicle: saline with Tween-80, higher T/C = longer survival
  survivor count: 10 of 10 on day 11
T/C endpoint: median survival time, dose: 60.0 mg/kg/injection, schedule: Q01DX001 (ip), vehicle: Klucel (hydroxypropylcellulose) (HPC), higher T/C = longer survival
  survivor count: 10 of 10
[1]
  T/C: 138 % of control
  survivor count: 10 of 10
T/C endpoint: median survival time, dose: 72.0 mg/kg/injection, schedule: Q01DX001 (ip), vehicle: Klucel (hydroxypropylcellulose) (HPC), higher T/C = longer survival
  survivor count: 10 of 10
T/C endpoint: median survival time, dose: 80.0 mg/kg/injection, schedule: Q01DX001 (ip), vehicle: saline with Tween-80, higher T/C = longer survival
  survivor count: 9 of 10 and 10 of 10
T/C endpoint: median survival time, dose: 81.0 mg/kg/injection, schedule: Q01DX001 (ip), vehicle: saline with Tween-80, higher T/C = longer survival
  survivor count: 8 of 10 on day 11
[2]
  T/C: 146 % of control
  survivor count: 10 of 10
T/C endpoint: median survival time, dose: 144.0 mg/kg/injection, schedule: Q01DX001 (ip), vehicle: Klucel (hydroxypropylcellulose) (HPC), higher T/C = longer survival
  survivor count: 10 of 10
T/C endpoint: median survival time, dose: 160.0 mg/kg/injection, schedule: Q01DX001 (ip), vehicle: saline with Tween-80, higher T/C = longer survival
  survivor count: 6 of 10, 8 of 10, 10 of 10 on day 11
T/C endpoint: median survival time, dose: 240.0 mg/kg/injection, schedule: Q01DX001 (ip), vehicle: saline with Tween-80, higher T/C = longer survival
  survivor count: 10 of 10 on day 11
[3]
  T/C: 125 % of control
  survivor count: 10 of 10
T/C endpoint: median survival time, dose: 360.0 mg/kg/injection, schedule: Q01DX001 (ip), vehicle: saline with Tween-80, higher T/C = longer survival
  survivor count: 7 of 10 on day 11
T/C endpoint: median survival time, dose: 540.0 mg/kg/injection, schedule: Q01DX001 (ip), vehicle: saline with Tween-80, higher T/C = longer survival
  survivor count: 1 of 10 on day 11
T/C endpoint: median tumor weight (est.), dose: 12.0 mg/kg/injection, schedule: Q01DX001 (ip), vehicle: gum acacia, higher T/C = larger tumour
  survivor count: 6 of 10 on day 19
T/C endpoint: median tumor weight (est.), dose: 16.0 mg/kg/injection, schedule: Q01DX009 (ip), vehicle: Klucel (hydroxypropylcellulose) (HPC), higher T/C = larger tumour
  survivor count: 1 of 10
T/C endpoint: median tumor weight (est.), dose: 24.0 mg/kg/injection, schedule: Q01DX001 (ip), vehicle: gum acacia, evaluated on day 16, higher T/C = larger tumour
  T/C: 7 and 8 % of control
T/C endpoint: median tumor weight (est.), dose: 24.0 mg/kg/injection, schedule: Q01DX001 (ip), vehicle: gum acacia, evaluated on day 18, higher T/C = larger tumour
  T/C: 2 % of control
T/C endpoint: median tumor weight (est.), dose: 24.0 mg/kg/injection, schedule: Q01DX001 (ip), vehicle: gum acacia, evaluated on day 19, higher T/C = larger tumour
  T/C: 4 % of control [9 of 10 alive on day 19]
T/C endpoint: median tumor weight (est.), dose: 24.0 mg/kg/injection, schedule: Q01DX001 (ip), vehicle: gum acacia, evaluated on day 21, higher T/C = larger tumour
  T/C: 11 % of control
T/C endpoint: median tumor weight (est.), dose: 24.0 mg/kg/injection, schedule: Q01DX001 (ip), vehicle: saline with Tween-80, evaluated on day 18, higher T/C = larger tumour
  T/C: 144 % of control [9 of 10 alive on day 18]
T/C endpoint: median tumor weight (est.), dose: 36.0 mg/kg/injection, schedule: Q01DX001 (ip), vehicle: DMSO, higher T/C = larger tumour
  survivor count: 4 of 10 on day 14
T/C endpoint: median tumor weight (est.), dose: 36.0 mg/kg/injection, schedule: Q01DX001 (ip), vehicle: gum acacia, evaluated on day 16, higher T/C = larger tumour
  T/C: 9 [9 of 10 alive on day 16] and 11 % of control [9 of 10 alive on day 16]
T/C endpoint: median tumor weight (est.), dose: 36.0 mg/kg/injection, schedule: Q01DX001 (ip), vehicle: gum acacia, evaluated on day 18, higher T/C = larger tumour
  T/C: 5 % of control
T/C endpoint: median tumor weight (est.), dose: 36.0 mg/kg/injection, schedule: Q01DX001 (ip), vehicle: gum acacia, evaluated on day 21, higher T/C = larger tumour
  T/C: 3 % of control [9 of 10 alive on day 21]
T/C endpoint: median tumor weight (est.), dose: 54.0 mg/kg/injection, schedule: Q01DX001 (ip), vehicle: DMSO, higher T/C = larger tumour
  survivor count: 1 of 10 on day 14
T/C endpoint: median tumor weight (est.), dose: 54.0 mg/kg/injection, schedule: Q01DX001 (ip), vehicle: gum acacia, higher T/C = larger tumour
  survivor count: 0 of 10 on day 21
T/C endpoint: median tumor weight (est.), dose: 54.0 mg/kg/injection, schedule: Q01DX001 (sc), vehicle: olive oil, sesame oil, peanut oil, higher T/C = larger tumour
  survivor count: 0 of 10 on day 14
T/C endpoint: median tumor weight (est.), dose: 60.0 mg/kg/injection, schedule: Q01DX001 (ip), vehicle: Klucel (hydroxypropylcellulose) (HPC), higher T/C = larger tumour
  survivor count: 2 of 10
T/C endpoint: median tumor weight (est.), dose: 100.0 mg/kg/injection, schedule: Q01DX001 (ip), vehicle: saline with Tween-80, higher T/C = larger tumour
  survivor count: 4 of 10 on day 21
T/C endpoint: median tumor weight (est.), dose: 125.0 mg/kg/injection, schedule: Q01DX001 (ip), vehicle: saline with Tween-80, higher T/C = larger tumour
  survivor count: 0 of 10 on day 21
T/C endpoint: median tumor weight (est.), dose: 150.0 mg/kg/injection, schedule: Q01DX001 (ip), vehicle: saline with Tween-80, higher T/C = larger tumour
  survivor count: 1 of 10 on day 21
